The list shows a part of the results. Many values rest on one well or one pass, so single values are uncertain.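 Imaging used 1,536-well plates; nuclei positive for cleaved PARP by antibody were divided by total DNA-stained nuclei to yield the apoptosis fraction. Doses for screening kept most cells viable, and cell lines differ markedly in resting and induced cleaved-PARP levels.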
What was measured:
Assay in all cases: cleaved PARP positive nuclei fraction relative to DMSO control; melanoma cells; higher = more apoptosis
Settings in all cases: library dose: low library concentration; 72 h
[1] = system: CBRC034 (line from a melanoma biopsy)
[2] = system: COLO792
[3] = system: COLO800
[4] = system: COLO829
[5] = system: G361
[6] = system: IPC-298
[7] = system: IST-MEL1
[8] = system: LB2518-MEL
[9] = system: LOXIMVI
[10] = system: MEL-HO
[11] = system: MZ2-MEL
[12] = system: MeWo
[13] = system: RPMI7951
[14] = system: RVH-421
[15] = system: SkMel28
[16] = system: SkMel2
[17] = system: SkMel30
[18] = system: UACC62

Row | Compound | cleaved PARP positive nuclei fraction [1] [%] | cleaved PARP positive nuclei fraction [2] [%] | cleaved PARP positive nuclei fraction [3] [%] | cleaved PARP positive nuclei fraction [4] [%] | cleaved PARP positive nuclei fraction [5] [%] | cleaved PARP positive nuclei fraction [6] [%] | cleaved PARP positive nuclei fraction [7] [%] | cleaved PARP positive nuclei fraction [8] [%] | cleaved PARP positive nuclei fraction [9] [%] | cleaved PARP positive nuclei fraction [10] [%] | cleaved PARP positive nuclei fraction [11] [%] | cleaved PARP positive nuclei fraction [12] [%] | cleaved PARP positive nuclei fraction [13] [%] | cleaved PARP positive nuclei fraction [14] [%] | cleaved PARP positive nuclei fraction [15] [%] | cleaved PARP positive nuclei fraction [16] [%] | cleaved PARP positive nuclei fraction [17] [%] | cleaved PARP positive nuclei fraction [18] [%]
1 | OCc1c[nH]c2ccccc12 [Indole-3-carbinol] + Nc1cccc2c1CN(C1CCC(=O)NC1=O)C2=O [lenalidomide] (first compound 0.8 µM, partner dose 1 µM) | 97 | 94.8 | 61.1 | 155 | 106 | 126 | 57.7 | 48 | 68.7 | 72.7 | 74.1 | 50.5 | 41.3 | 81.6 | 43.1 | 135 | 36.6 | 58.7
2 | OCc1c[nH]c2ccccc12 [Indole-3-carbinol] + C[C@]1(c2nc3c(C(N)=O)cccc3[nH]2)CCCN1 [Veliparib] (first compound 0.8 µM, partner dose 1.4 µM) | 85.7 | 82.2 | 37.3 | 104 | 91.1 | 207 | 62.8 | 211 | 102 | 48 | 134 | 56.5 | 74.3 | 76.7 | 39.7 | 95.4 | 88.3 | 74.5
3 | C=CCNC1=C2C[C@@H](C)C[C@H](OC)[C@H](O)[C@@H](C)/C=C(\C)[C@H](OC(N)=O)[C@@H](OC)/C=C\C=C(/C)C(=O)NC(=CC1=O)C2=O [Tanespimycin] + Clc1ccc(Nc2nnc(Cc3ccncc3)c3ccccc23)cc1 [vatalanib] (first compound 0.002 µM, partner dose 2 µM) | 69 | 126 | 96.9 | 63.8 | 144 | 230 | 40.6 | 121 | 93.3 | 133 | 356 | 99.9 | 132 | 112 | 97.3 | 114 | 61.5 | 56
4 | C#Cc1cccc(Nc2ncnc3cc(OCCOC)c(OCCOC)cc23)c1 [erlotinib] + Cc1nc(Nc2ncc(C(=O)Nc3c(C)cccc3Cl)s2)cc(N2CCN(CCO)CC2)n1 [dasatanib] (first compound 0.8 µM, partner dose 0.004 µM) | 159 | 135 | 117 | 259 | 36.4 | 232 | 135 | 57.4 | 113 | 97.2 | 133 | 108 | 37.6 | 184 | 79.2 | 46.8 | 71.9 | 191
5 | COCC[n+]1c2c(n(Cc3cnccn3)c1C)C(=O)c1ccccc1C2=O + C[C@]1(c2nc3c(C(N)=O)cccc3[nH]2)CCCN1 [Veliparib] (first compound 0.0004 µM, partner dose 1.4 µM) | 44.5 | 83 | 167 | 122 | 67 | 54.4 | 105 | 222 | 42.6 | 192 | 424 | 83.3 | 77.6 | 172 | 84.5 | 156 | 148 | 90.7
6 | Cc1nc(Nc2ncc(C(=O)Nc3c(C)cccc3Cl)s2)cc(N2CCN(CCO)CC2)n1 [dasatanib] + Cn1nnc2c(C(N)=O)ncn2c1=O [temozolomide] (first compound 0.004 µM, partner dose 2 µM) | 219 | 63.5 | 78.3 | 99.7 | 103 | 128 | 702 | 232 | 357 | 133 | 107 | 84.3 | 155 | 78.5 | 150 | 72.8 | 117 | 256
7 | CC(=O)c1c(C)c2cnc(Nc3ccc(N4CCNCC4)cn3)nc2n(C2CCCC2)c1=O [palbociclib] + C#Cc1cccc(Nc2ncnc3cc(OCCOC)c(OCCOC)cc23)c1 [erlotinib] (first compound 0.04 µM, partner dose 0.8 µM) | 387 | 114 | 252 | 122 | 75.6 | 136 | 167 | 39.6 | 127 | 167 | 107 | 90.2 | 122 | 89.3 | 124 | 134 | 35.3 | 271
8 | Clc1ccc(Nc2nnc(Cc3ccncc3)c3ccccc23)cc1 [vatalanib] + COCC[n+]1c2c(n(Cc3cnccn3)c1C)C(=O)c1ccccc1C2=O [YM155] (first compound 2 µM, partner dose 0.0004 µM) | 80.7 | 108 | 51.5 | 72.9 | 120 | 88.3 | 180 | 105 | 115 | 52.8 | 62.3 | 795 | 53.1 | 181 | 40.3 | 68.1 | 27.9 | 123
9 | C=CCNC1=C2C[C@@H](C)C[C@H](OC)[C@H](O)[C@@H](C)/C=C(\C)[C@H](OC(N)=O)[C@@H](OC)/C=C\C=C(/C)C(=O)NC(=CC1=O)C2=O [Tanespimycin] + OCc1c[nH]c2ccccc12 [Indole-3-carbinol] (first compound 0.002 µM, partner dose 0.8 µM) | 67.8 | 106 | 154 | 59.3 | 83.6 | 45.6 | 161 | 105 | 31.5 | 253 | 124 | 77.7 | 218 | 89.3 | 74.3 | 109 | 91.2 | 112
10 | C=CCNC1=C2C[C@@H](C)C[C@H](OC)[C@H](O)[C@@H](C)/C=C(\C)[C@H](OC(N)=O)[C@@H](OC)/C=C\C=C(/C)C(=O)NC(=CC1=O)C2=O [Tanespimycin] + COCC[n+]1c2c(n(Cc3cnccn3)c1C)C(=O)c1ccccc1C2=O [YM155] (first compound 0.002 µM, partner dose 0.0004 µM) | 122 | 44.2 | 97.1 | 61.9 | 82.5 | 123 | 68.4 | 96.4 | 111 | 90.5 | 172 | 58.9 | 21.3 | 94.4 | 79.3 | 105 | 49.8 | 43.9
11 | Clc1ccc(Nc2nnc(Cc3ccncc3)c3ccccc23)cc1 [vatalanib] + C[C@]1(c2nc3c(C(N)=O)cccc3[nH]2)CCCN1 [Veliparib] (first compound 2 µM, partner dose 1.4 µM) | 192 | 149 | 155 | 94.2 | 133 | 151 | 259 | 98.6 | 200 | 40.2 | 72.9 | 41.7 | 53.4 | 117 | 83.9 | 99.5 | 32.5 | 57.3
12 | C#Cc1cccc(Nc2ncnc3cc(OCCOC)c(OCCOC)cc23)c1 [erlotinib] + C[C@]1(c2nc3c(C(N)=O)cccc3[nH]2)CCCN1 [Veliparib] (first compound 0.8 µM, partner dose 1.4 µM) | 89.8 | 118 | 81.2 | 150 | 123 | 94.6 | 145 | 120 | 67.6 | 135 | 103 | 119 | 371 | 56.5 | 51.8 | 223 | 241 | 36.8
13 | Cc1nc(Nc2ncc(C(=O)Nc3c(C)cccc3Cl)s2)cc(N2CCN(CCO)CC2)n1 [dasatanib] + Cn1c(Nc2ccc(C(F)(F)F)cc2)nc2cc(Oc3ccnc(-c4ncc(C(F)(F)F)[nH]4)c3)ccc21 [CHIR265] (first compound 0.004 µM, partner dose 0.08 µM) | 618 | 575 | 35 | 144 | 161 | 156 | 222 | 195 | 115 | 95.8 | 118 | 231 | 512 | 237 | 170 | 79.1 | 84.4 | 64.8
14 | OCc1c[nH]c2ccccc12 [Indole-3-carbinol] + Cn1nnc2c(C(N)=O)ncn2c1=O [temozolomide] (first compound 0.8 µM, partner dose 2 µM) | 87.7 | 145 | 151 | 89.1 | 125 | 125 | 201 | 103 | 145 | 41.8 | 34.6 | 68.1 | 116 | 26.1 | 243 | 43.5 | 96.5 | 116
15 | OCc1c[nH]c2ccccc12 [Indole-3-carbinol] + Cn1c(Nc2ccc(C(F)(F)F)cc2)nc2cc(Oc3ccnc(-c4ncc(C(F)(F)F)[nH]4)c3)ccc21 [CHIR265] (first compound 0.8 µM, partner dose 0.08 µM) | 1580 | 299 | 99.2 | 65.6 | 162 | 141 | 135 | 407 | 117 | 71.7 | 90.3 | 199 | 68.3 | 264 | 103 | 147 | 35.7 | 158
16 | C#Cc1cccc(Nc2ncnc3cc(OCCOC)c(OCCOC)cc23)c1 [erlotinib] + Cn1c(Nc2ccc(C(F)(F)F)cc2)nc2cc(Oc3ccnc(-c4ncc(C(F)(F)F)[nH]4)c3)ccc21 [CHIR265] (first compound 0.8 µM, partner dose 0.08 µM) | 30.9 | 166 | 128 | 99.8 | 94.2 | 132 | 46.9 | 254 | 127 | 156 | 50 | 83.1 | 52.8 | 246 | 137 | 106 | 154 | 264
17 | OCc1c[nH]c2ccccc12 [Indole-3-carbinol] + Cc1nc(Nc2ncc(C(=O)Nc3c(C)cccc3Cl)s2)cc(N2CCN(CCO)CC2)n1 [dasatanib] (first compound 0.8 µM, partner dose 0.004 µM) | 93.3 | 142 | 184 | 117 | 103 | 98.1 | 71.6 | 60.2 | 283 | 88.9 | 184 | 92.9 | 219 | 147 | 106 | 79.1 | 36.2 | 225
18 | C=CCNC1=C2C[C@@H](C)C[C@H](OC)[C@H](O)[C@@H](C)/C=C(\C)[C@H](OC(N)=O)[C@@H](OC)/C=C\C=C(/C)C(=O)NC(=CC1=O)C2=O [Tanespimycin] + CC(=O)c1c(C)c2cnc(Nc3ccc(N4CCNCC4)cn3)nc2n(C2CCCC2)c1=O [palbociclib] (first compound 0.002 µM, partner dose 0.04 µM) | 64.2 | 188 | 119 | 109 | 125 | 50.1 | 116 | 107 | 113 | 51.5 | 77 | 63.7 | 50.3 | 77.5 | 143 | 43.5 | 111 | 170

Record cards, from the list above. Order of values: cleaved PARP positive nuclei fraction [1] [%] | cleaved PARP positive nuclei fraction [2] [%] | cleaved PARP positive nuclei fraction [3] [%] | cleaved PARP positive nuclei fraction [4] [%] | cleaved PARP positive nuclei fraction [5] [%] | cleaved PARP positive nuclei fraction [6] [%] | cleaved PARP positive nuclei fraction [7] [%] | cleaved PARP positive nuclei fraction [8] [%] | cleaved PARP positive nuclei fraction [9] [%] | cleaved PARP positive nuclei fraction [10] [%] | cleaved PARP positive nuclei fraction [11] [%] | cleaved PARP positive nuclei fraction [12] [%] | cleaved PARP positive nuclei fraction [13] [%] | cleaved PARP positive nuclei fraction [14] [%] | cleaved PARP positive nuclei fraction [15] [%] | cleaved PARP positive nuclei fraction [16] [%] | cleaved PARP positive nuclei fraction [17] [%] | cleaved PARP positive nuclei fraction [18] [%]
C#Cc1cccc(Nc2ncnc3cc(OCCOC)c(OCCOC)cc23)c1 [erlotinib] + Cn1c(Nc2ccc(C(F)(F)F)cc2)nc2cc(Oc3ccnc(-c4ncc(C(F)(F)F)[nH]4)c3)ccc21 [CHIR265] (first compound 0.8 µM, partner dose 0.08 µM) in the list: 30.9 | 166 | 128 | 99.8 | 94.2 | 132 | 46.9 | 254 | 127 | 156 | 50 | 83.1 | 52.8 | 246 | 137 | 106 | 154 | 264
OCc1c[nH]c2ccccc12 [Indole-3-carbinol] + Cn1c(Nc2ccc(C(F)(F)F)cc2)nc2cc(Oc3ccnc(-c4ncc(C(F)(F)F)[nH]4)c3)ccc21 [CHIR265] (first compound 0.8 µM, partner dose 0.08 µM) in the list: 1580 | 299 | 99.2 | 65.6 | 162 | 141 | 135 | 407 | 117 | 71.7 | 90.3 | 199 | 68.3 | 264 | 103 | 147 | 35.7 | 158
